From paper PMC7819943, “Rice protein-binding microarrays: a tool to detect cis-acting elements near promoter regions in rice”
Some of the results follow.

By UniProt entry, the sequences of proteins in these tests, tags left out.
UniProt Q0JBA9, entry or part of it: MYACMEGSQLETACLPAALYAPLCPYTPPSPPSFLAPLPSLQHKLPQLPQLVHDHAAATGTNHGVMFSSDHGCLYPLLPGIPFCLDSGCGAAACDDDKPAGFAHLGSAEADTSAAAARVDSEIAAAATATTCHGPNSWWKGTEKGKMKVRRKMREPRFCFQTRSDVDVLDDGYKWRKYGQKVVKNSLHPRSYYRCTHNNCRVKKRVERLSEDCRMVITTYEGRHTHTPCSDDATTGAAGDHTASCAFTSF

These sequences were tested against OsWRKY34 (Oryza sativa, UniProt Q0JBA9 1-250) (assay: protein-binding microarray (RPBM); PBS, 2% BSA, 51.3 ng/ul salmon testes DNA, 50 uM zinc acetate, 200 nM TF, 25 C, 1 h; high values mean tight binding). Settings: protein: recombinant; tags: N-terminal polyhistidine and DsRed monomer fusion (pET32a); label: CyDye5-dUTP incorporated in the synthesized complementary strand; 3' TTTTT single-stranded linker to array surface; dsDNA, one strand shown.
Procedure, shortened: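 Ni–NTA purification followed expression in E. coli BL21-CodonPlus of transcription factors fused N-terminally to a polyhistidine tag and DsRed. At 200 nM in PBS with 2% BSA, salmon testes DNA and 50 µM zinc acetate, the protein was incubated for 1 h at 25 °C with a custom Agilent array that had been primer-extended with Cy5-dUTP and blocked with 2% BSA. After washing, the array was read on an Axon 4000B scanner. The binding signal is per-feature fluorescence intensity in arbitrary units.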

| Sequence | binding signal |
| --- | --- |
| ATGGACCTGAAAGCTGTTTACCTTTTTTTCCATCCTAATCCGGAGTCACCTAGTGCAG | 8770 fluorescence intensity (a.u.) |
| CGTTTTTTTTTTCATTCCATGTTTGCATTAGCTTCATTTCCGGAGTCACCTAGTGCAG | 13400 fluorescence intensity (a.u.) |
| ATTACCTTGTCACAGACAGCTCGCCGCACTTTCTCCCGAACGGAGTCACCTAGTGCAG | 10400 fluorescence intensity (a.u.) |
| TTTTGTTCATTTACATTCAGCAAACAGTATCCGGTTTGTACGGAGTCACCTAGTGCAG | 10700 fluorescence intensity (a.u.) |
| TGGTATTGGGATTTGAATGCCTTTTTGTCAATTGTCCCTTCGGAGTCACCTAGTGCAG | 9280 fluorescence intensity (a.u.) |
| ACCTTACCACAACTGCTGCACCTAATTCAAACCAACCAAACGGAGTCACCTAGTGCAG | 8540 fluorescence intensity (a.u.) |
| TGGTGTGTTTTTTGGGATGTTTCGGTAGGTATTTTGTGATCGGAGTCACCTAGTGCAG | 12000 fluorescence intensity (a.u.) |
| GTTTTTATGATTTCCTATTCGTCCATTATTTTCTTTTTAACGGAGTCACCTAGTGCAG | 9940 fluorescence intensity (a.u.) |
| ATGGATTTTTTTATTTTTTCTCCCTTTTTCCTTCTTTTTTCGGAGTCACCTAGTGCAG | 8690 fluorescence intensity (a.u.) |
| GCATATGAGTCCATGTGTCGATCACCACGTCACGATGACTCGGAGTCACCTAGTGCAG | 8110 fluorescence intensity (a.u.) |
| CCCCACTTTGGCATGTATATAAGCACACCCAAGCTATCCTCGGAGTCACCTAGTGCAG | 8040 fluorescence intensity (a.u.) |
| AGGCCCGCGACATCTGCACCGCCTTCCCCAATGTAACTTACGGAGTCACCTAGTGCAG | 8080 fluorescence intensity (a.u.) |
| TTGCTCTTCTTTTTTCAGTAGTATTTTTTCCCCTGGGTGACGGAGTCACCTAGTGCAG | 8150 fluorescence intensity (a.u.) |
| ATTTCTTGCTTCTACTTTATTTTCTGAATTATGCTGATATCGGAGTCACCTAGTGCAG | 11000 fluorescence intensity (a.u.) |
| CTTGTTCCTAGCTGCATGCAATACCTTTTCCCATTAAAAACGGAGTCACCTAGTGCAG | 8530 fluorescence intensity (a.u.) |
| GTCCGCTTCTTCTTCGGCCCCGCCATCATGGCCGCCGCGTCGGAGTCACCTAGTGCAG | 8480 fluorescence intensity (a.u.) |
| CGAATCTCAATCCACAGGCTCACACTGATACGCAACGCACCGGAGTCACCTAGTGCAG | 8230 fluorescence intensity (a.u.) |
| TTCTTCCCCGCGCGGCCCACGTAGCCCACACGCATACAACCGGAGTCACCTAGTGCAG | 8820 fluorescence intensity (a.u.) |
| GCTTCCCTGCTTTCTACTTCACGTACCGTCATTGATGTACCGGAGTCACCTAGTGCAG | 9580 fluorescence intensity (a.u.) |
| GACCTCTGTTGCGTTTTCCTCACGTCCAACTTCCTCTCAGCGGAGTCACCTAGTGCAG | 11000 fluorescence intensity (a.u.) |
| CCTCGACCGTCCCCAACCGACGACCCCGTGGTCACGCTCCCGGAGTCACCTAGTGCAG | 10900 fluorescence intensity (a.u.) |
| AGACCACCACACAATCACACATGCACATCCATTCAACTTTCGGAGTCACCTAGTGCAG | 13300 fluorescence intensity (a.u.) |
| ACCTGCATCCGATCGGACCAACGCAAACACCGCGATCCCGCGGAGTCACCTAGTGCAG | 8590 fluorescence intensity (a.u.) |
| TCTCCATCTACCACTACTAGTTTATTGTTTGAGAGATTCACGGAGTCACCTAGTGCAG | 8180 fluorescence intensity (a.u.) |
| CCTTCTTCCGGCACGCCTTGCACCGGTTCTTCGCCTTCGTCGGAGTCACCTAGTGCAG | 8550 fluorescence intensity (a.u.) |
| GTCTCCGCCATCGTTGTCGCCGTCGCCTCGCGCCACCACGCGGAGTCACCTAGTGCAG | 8230 fluorescence intensity (a.u.) |
| ACCATTCACTTTTCCTACCTACCTACACTTCTTAACCAATCGGAGTCACCTAGTGCAG | 10600 fluorescence intensity (a.u.) |

| Sequence | binding signal |
| --- | --- |
| CCCCAAAATTTTCAACGCGCCCTTTCACACTTTCGTGTCGCGGAGTCACCTAGTGCAG | 8650 fluorescence intensity (a.u.) |
| ATGTTGACTCGTTTGCCTGTGTTCCTCTTGCTGCTATTCACGGAGTCACCTAGTGCAG | 19200 fluorescence intensity (a.u.) |
| TCGAGGTCTCGCCTGAGTCCTCATCCTGCCAAGTGCTAGCCGGAGTCACCTAGTGCAG | 8140 fluorescence intensity (a.u.) |
| TTATTCGGGGCAGTTCTTTCTTTGATACACTAACTTTGAGCGGAGTCACCTAGTGCAG | 8600 fluorescence intensity (a.u.) |
| GCCTTGTCGTCTTGGTATTGCACGTTACTACTACTACTAGCGGAGTCACCTAGTGCAG | 11000 fluorescence intensity (a.u.) |
| TCGCCGCTTTTCTCCATTGACACCTTTGTTTCCCATCTCTCGGAGTCACCTAGTGCAG | 11300 fluorescence intensity (a.u.) |
| ACCGCTCACCAACCCCGGCTGCCTCACCGGCTCCGGCCACCGGAGTCACCTAGTGCAG | 8550 fluorescence intensity (a.u.) |
| TATTTAGCATCATTTTTGTTTTTTTTCACAACATATGTAACGGAGTCACCTAGTGCAG | 8410 fluorescence intensity (a.u.) |
| AAAATTATAATGGCATGGTTCCAATTTTCCCCAATTTTTACGGAGTCACCTAGTGCAG | 8310 fluorescence intensity (a.u.) |
| CAAGTATACAACTAGTCATGCACCCTGCAGGTTGACTTTACGGAGTCACCTAGTGCAG | 8360 fluorescence intensity (a.u.) |
| CTCATCGATCAAAGGTTGCCACTTTAATTGCCTTATAATACGGAGTCACCTAGTGCAG | 9570 fluorescence intensity (a.u.) |
| GCAACGTTCGACCACTCGTTTCATTCATTTTTTTTGAAATCGGAGTCACCTAGTGCAG | 10800 fluorescence intensity (a.u.) |
| AGGTAGGGAGGGTTTTACAAGGACCTACGCGTTTTCCATGCGGAGTCACCTAGTGCAG | 9400 fluorescence intensity (a.u.) |
| AAATATGATTAATATTTTATGCGCGACTTGTCTTTTTAATCGGAGTCACCTAGTGCAG | 8280 fluorescence intensity (a.u.) |
| ATTTTCAGTGAAGTCGCATTATCTTGCCTTGGTACATTCACGGAGTCACCTAGTGCAG | 10800 fluorescence intensity (a.u.) |
| GATTCTCGCCCCGCACGCGACCTCGCATTTACGACAGATCCGGAGTCACCTAGTGCAG | 9640 fluorescence intensity (a.u.) |
| CGATCCGTCCATCCATCCAGCGCGCGTCGGCCCGTCCATCCGGAGTCACCTAGTGCAG | 9350 fluorescence intensity (a.u.) |
| GGGTATGCAGCTGTAGTATATGTTTCTTGATGTCTTCTTTCGGAGTCACCTAGTGCAG | 11300 fluorescence intensity (a.u.) |
| CCTATCACATCGAACGTTTGAACACCTGCATAAAGTATTACGGAGTCACCTAGTGCAG | 8170 fluorescence intensity (a.u.) |
| GTCGGTAATCCTTCAAGAGCGCCGGCGCTTCTTTCTTCGGCGGAGTCACCTAGTGCAG | 8400 fluorescence intensity (a.u.) |
| TTCATATTCTTTTTTTTTTCGAGGTCATACTTTTTAATTCCGGAGTCACCTAGTGCAG | 12200 fluorescence intensity (a.u.) |
| GAACAGCTTTCACCTGGCACTCCGTACAACCGCTCATCCTCGGAGTCACCTAGTGCAG | 8400 fluorescence intensity (a.u.) |
| GGCAGCACGACTTGTAAAGCAACTGGACATAATGAATTCTCGGAGTCACCTAGTGCAG | 8340 fluorescence intensity (a.u.) |
| CCCACGCTTGCCATTCTGCCGCTTAACGTAGCCACGTCAACGGAGTCACCTAGTGCAG | 9040 fluorescence intensity (a.u.) |
| TCGCCTCTCGTTGCCCGCCGCGTCGCGCTCACGAGATCCCCGGAGTCACCTAGTGCAG | 9100 fluorescence intensity (a.u.) |
| CTACCTTACCATTTCGATCACATCGGCAGAAACGGCTACTCGGAGTCACCTAGTGCAG | 8440 fluorescence intensity (a.u.) |
| ACCACTTTGATCAAGCATTTTTTAGTAAAATTTTTGTACCCGGAGTCACCTAGTGCAG | 8400 fluorescence intensity (a.u.) |

Nothing new here: an excerpt of the list.

| Sequence | binding signal |
| --- | --- |
| GGGTATGCAGCTGTAGTATATGTTTCTTGATGTCTTCTTTCGGAGTCACCTAGTGCAG | 11300 fluorescence intensity (a.u.) |
| CCTATCACATCGAACGTTTGAACACCTGCATAAAGTATTACGGAGTCACCTAGTGCAG | 8170 fluorescence intensity (a.u.) |
